The other results are listed elsewhere or left out. The data scatter; read single values as rough.
compound: ClCC(=O)N[C@@H]1CCCc2ccccc12; test: log2 mean competition ratio of IA-DTB cysteine labelling (DMSO/compound) (log2 ratio); higher = stronger cysteine engagement by compound; settings: 50 µM; treatment time: 4 h; cell line lysate: HEK293T
Protocol: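 IA-DTB competitive cysteine chemoproteomics in HEK293T RIPA lysate. Lysates were treated with compound 29 or 30 at 50 or 200 µM for 4 h, then IA-DTB (500 µM, 1 h), trypsin-digested, NeutrAvidin-enriched and analysed by diaPASEF. Competition ratio = intensity DMSO / intensity compound (n=4 treated, n=64 DMSO); binding: mean log2 CR ≥ 1 and p ≤ 0.05 plus QC filters. Target is the cysteine site.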

Amino acid sequences for entries named in this document (tags omitted). A change or cut given only in a name is not applied to a line headed by its entry. Residues count along the entry.
UniProt Q9UHK0: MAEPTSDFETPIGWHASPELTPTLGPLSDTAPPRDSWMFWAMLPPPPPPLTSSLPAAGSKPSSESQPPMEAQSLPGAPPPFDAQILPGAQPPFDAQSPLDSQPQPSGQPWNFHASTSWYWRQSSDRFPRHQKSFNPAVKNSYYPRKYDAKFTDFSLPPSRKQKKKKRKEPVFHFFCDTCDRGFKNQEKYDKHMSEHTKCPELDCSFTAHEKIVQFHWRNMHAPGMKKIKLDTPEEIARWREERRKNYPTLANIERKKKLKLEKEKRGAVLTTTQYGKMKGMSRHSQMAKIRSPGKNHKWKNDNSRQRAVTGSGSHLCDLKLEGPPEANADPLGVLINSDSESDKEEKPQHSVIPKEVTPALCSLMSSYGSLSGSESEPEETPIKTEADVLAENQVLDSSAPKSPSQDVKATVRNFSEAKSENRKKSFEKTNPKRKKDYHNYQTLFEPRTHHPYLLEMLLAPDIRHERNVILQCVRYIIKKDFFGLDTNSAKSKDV
UniProt Q96DC9: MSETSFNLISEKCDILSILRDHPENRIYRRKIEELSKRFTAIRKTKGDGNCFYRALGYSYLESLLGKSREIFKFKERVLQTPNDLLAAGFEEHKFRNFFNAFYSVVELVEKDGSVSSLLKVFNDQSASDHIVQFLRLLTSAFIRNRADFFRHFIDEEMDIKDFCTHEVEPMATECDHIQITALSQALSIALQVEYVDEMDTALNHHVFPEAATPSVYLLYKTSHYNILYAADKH
UniProt P50583: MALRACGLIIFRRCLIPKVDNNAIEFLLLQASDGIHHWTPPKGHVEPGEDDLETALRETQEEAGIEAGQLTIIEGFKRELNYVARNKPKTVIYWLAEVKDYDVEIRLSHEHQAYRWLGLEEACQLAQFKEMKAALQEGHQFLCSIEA
UniProt P04150: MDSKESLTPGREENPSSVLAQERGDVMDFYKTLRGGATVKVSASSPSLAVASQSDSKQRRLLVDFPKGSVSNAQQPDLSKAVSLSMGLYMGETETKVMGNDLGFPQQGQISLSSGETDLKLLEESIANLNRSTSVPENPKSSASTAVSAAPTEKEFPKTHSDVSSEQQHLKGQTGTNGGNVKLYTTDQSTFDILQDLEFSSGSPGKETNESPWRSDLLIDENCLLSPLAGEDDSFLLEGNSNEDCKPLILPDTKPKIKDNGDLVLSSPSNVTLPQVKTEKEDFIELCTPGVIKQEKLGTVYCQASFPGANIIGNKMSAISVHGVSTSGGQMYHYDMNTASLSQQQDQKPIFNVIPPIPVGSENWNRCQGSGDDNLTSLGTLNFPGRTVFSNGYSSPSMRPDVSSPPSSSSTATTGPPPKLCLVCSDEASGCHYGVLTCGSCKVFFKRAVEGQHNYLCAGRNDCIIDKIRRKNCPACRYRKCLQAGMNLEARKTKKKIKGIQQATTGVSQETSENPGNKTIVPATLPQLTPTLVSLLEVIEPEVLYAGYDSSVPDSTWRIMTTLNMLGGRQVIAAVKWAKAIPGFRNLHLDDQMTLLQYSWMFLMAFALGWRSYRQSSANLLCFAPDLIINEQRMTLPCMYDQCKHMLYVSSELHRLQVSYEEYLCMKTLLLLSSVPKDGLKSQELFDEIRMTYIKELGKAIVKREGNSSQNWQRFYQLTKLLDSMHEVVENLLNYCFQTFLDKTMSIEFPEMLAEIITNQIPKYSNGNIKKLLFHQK
UniProt Q8NFH5: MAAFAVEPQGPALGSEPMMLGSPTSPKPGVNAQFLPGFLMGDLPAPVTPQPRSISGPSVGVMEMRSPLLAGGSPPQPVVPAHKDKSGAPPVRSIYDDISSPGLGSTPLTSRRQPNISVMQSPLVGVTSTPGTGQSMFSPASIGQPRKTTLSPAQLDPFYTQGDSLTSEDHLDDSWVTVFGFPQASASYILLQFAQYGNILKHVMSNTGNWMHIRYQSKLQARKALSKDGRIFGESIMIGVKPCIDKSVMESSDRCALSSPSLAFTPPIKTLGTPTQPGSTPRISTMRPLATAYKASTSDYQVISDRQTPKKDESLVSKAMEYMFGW
UniProt Q99567: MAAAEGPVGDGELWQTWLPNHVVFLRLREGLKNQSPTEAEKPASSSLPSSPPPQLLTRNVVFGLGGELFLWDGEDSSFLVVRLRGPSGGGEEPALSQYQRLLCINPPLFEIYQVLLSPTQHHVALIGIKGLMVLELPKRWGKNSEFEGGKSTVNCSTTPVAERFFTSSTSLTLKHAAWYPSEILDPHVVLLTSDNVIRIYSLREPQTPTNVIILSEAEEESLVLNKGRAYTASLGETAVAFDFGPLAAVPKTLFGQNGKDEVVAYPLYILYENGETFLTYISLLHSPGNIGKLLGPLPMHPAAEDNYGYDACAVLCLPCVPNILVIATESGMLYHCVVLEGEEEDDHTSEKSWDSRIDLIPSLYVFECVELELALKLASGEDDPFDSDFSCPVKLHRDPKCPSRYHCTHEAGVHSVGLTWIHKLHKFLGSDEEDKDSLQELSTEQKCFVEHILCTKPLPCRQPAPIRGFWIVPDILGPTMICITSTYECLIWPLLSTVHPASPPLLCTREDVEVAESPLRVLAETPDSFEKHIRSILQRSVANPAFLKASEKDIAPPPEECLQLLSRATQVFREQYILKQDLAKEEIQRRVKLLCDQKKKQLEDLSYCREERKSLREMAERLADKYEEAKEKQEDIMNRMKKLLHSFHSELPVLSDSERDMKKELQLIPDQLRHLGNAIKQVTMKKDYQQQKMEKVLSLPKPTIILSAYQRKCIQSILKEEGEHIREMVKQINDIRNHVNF
UniProt Q9BSD7: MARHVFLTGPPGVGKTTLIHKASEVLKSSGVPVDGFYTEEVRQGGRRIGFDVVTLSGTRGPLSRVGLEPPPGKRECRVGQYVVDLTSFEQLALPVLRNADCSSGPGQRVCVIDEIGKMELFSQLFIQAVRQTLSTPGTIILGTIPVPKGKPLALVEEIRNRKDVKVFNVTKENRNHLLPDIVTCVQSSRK
UniProt Q5SRE5: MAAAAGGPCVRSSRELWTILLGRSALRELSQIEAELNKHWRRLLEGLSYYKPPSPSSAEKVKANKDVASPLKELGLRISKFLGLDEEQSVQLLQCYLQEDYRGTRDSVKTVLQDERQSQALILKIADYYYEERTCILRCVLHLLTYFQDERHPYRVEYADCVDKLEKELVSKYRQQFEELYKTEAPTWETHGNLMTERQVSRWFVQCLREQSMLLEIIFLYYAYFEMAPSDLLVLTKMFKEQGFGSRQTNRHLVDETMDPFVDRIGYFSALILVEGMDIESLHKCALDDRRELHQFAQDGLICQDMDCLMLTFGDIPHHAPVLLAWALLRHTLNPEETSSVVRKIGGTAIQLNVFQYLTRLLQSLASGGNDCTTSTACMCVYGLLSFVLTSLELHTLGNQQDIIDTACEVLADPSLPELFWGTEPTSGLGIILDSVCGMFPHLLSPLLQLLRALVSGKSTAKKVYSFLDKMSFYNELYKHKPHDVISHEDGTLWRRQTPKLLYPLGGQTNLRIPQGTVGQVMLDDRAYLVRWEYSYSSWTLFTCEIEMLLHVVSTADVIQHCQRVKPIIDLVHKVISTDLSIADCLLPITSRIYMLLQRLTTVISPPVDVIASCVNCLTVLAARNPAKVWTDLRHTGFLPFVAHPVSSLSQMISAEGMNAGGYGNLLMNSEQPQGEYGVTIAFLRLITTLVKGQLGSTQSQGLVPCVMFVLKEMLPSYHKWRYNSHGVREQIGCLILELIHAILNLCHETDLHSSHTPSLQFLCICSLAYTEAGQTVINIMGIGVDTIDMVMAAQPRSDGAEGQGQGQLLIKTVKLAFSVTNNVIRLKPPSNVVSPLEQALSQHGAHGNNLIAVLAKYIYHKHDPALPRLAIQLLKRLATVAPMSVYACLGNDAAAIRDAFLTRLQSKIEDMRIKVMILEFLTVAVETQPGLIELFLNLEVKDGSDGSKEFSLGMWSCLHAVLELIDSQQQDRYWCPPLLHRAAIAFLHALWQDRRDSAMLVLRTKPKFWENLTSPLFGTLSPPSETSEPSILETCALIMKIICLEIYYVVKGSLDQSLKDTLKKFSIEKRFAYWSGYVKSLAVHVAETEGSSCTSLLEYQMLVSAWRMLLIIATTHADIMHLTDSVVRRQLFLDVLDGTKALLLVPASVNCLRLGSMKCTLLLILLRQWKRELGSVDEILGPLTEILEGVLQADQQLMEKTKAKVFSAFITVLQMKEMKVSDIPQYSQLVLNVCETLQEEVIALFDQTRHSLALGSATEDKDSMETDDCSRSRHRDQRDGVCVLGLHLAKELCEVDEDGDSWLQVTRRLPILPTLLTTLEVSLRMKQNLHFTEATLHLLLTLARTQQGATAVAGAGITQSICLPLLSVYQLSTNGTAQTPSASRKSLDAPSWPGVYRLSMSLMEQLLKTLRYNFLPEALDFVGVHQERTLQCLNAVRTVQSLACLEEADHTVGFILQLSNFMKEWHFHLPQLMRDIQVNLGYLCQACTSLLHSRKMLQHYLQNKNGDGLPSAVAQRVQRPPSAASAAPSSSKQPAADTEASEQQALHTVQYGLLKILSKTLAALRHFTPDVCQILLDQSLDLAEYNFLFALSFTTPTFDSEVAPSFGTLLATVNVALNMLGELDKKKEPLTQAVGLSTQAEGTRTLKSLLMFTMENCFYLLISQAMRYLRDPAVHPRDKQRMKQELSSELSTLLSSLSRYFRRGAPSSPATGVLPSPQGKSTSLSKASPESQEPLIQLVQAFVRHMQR
UniProt Q96P11: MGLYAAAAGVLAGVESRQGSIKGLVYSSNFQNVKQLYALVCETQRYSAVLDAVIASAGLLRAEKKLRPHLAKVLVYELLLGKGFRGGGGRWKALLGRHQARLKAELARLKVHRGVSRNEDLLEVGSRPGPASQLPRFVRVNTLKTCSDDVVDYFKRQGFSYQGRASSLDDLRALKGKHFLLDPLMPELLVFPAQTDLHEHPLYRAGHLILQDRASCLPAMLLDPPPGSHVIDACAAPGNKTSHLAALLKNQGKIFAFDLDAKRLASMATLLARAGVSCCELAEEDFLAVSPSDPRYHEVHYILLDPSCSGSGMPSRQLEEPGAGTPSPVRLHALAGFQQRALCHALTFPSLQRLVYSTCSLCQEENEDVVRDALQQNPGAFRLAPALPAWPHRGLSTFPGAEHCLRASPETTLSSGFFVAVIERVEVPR
UniProt Q14207: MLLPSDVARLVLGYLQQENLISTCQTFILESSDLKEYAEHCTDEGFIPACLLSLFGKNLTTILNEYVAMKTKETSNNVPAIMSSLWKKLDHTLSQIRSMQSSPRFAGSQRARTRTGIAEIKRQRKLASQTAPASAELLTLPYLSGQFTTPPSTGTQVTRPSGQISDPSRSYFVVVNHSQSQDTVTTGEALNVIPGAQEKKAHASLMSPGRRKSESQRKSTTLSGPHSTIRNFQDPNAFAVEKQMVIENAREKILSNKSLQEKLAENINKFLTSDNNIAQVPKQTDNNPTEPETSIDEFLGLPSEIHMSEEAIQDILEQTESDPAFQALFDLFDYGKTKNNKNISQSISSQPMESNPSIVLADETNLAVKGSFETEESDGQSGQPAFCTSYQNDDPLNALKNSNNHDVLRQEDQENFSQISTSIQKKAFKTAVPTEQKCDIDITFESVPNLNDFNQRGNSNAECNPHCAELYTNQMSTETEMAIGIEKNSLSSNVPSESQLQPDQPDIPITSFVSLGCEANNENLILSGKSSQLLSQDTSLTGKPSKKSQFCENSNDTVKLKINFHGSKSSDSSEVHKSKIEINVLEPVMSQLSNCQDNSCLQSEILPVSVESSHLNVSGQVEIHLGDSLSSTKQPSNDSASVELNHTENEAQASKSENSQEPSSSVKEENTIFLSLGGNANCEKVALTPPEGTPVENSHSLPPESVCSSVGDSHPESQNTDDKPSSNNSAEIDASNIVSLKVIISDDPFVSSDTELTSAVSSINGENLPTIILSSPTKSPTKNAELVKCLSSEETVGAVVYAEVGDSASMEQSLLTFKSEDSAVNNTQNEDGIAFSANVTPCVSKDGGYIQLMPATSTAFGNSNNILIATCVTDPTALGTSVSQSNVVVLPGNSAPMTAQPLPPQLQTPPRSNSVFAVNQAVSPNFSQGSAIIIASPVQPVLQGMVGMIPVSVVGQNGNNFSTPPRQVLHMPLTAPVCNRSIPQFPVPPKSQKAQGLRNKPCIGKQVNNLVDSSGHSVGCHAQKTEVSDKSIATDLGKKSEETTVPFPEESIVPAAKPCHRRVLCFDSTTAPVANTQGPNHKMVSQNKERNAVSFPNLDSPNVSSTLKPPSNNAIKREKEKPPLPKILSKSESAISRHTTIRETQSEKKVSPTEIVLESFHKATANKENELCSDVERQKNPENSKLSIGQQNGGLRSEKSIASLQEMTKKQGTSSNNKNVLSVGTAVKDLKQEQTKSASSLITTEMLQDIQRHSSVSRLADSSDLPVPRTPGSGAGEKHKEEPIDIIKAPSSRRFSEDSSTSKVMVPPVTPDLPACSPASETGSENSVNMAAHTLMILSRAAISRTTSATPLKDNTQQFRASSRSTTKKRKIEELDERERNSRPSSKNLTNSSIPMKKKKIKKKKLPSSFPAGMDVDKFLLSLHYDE
UniProt Q96L73, 794-813: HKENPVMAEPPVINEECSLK

| Target | log2 mean competition ratio |
| --- | --- |
| OGDH C331 (UniProt Q02218) | -0.335 |
| NUFIP1 C317 (UniProt Q9UHK0) | -0.0277 |
| NUMBL C78 (UniProt Q9Y6R0) | 0.0345 |
| OTUB2 C51 (UniProt Q96DC9) | -0.0021 |
| OSBPL2 C122 (UniProt Q9H1P3) | 0.36 |
| NT5C3A C73 (UniProt Q9H0P0) | -0.156 |
| NUDT2 C143 (UniProt P50583) | -0.0553 |
| NR3C1 C463 (UniProt P04150) | -0.0965 |
| NUP35 C255 (UniProt Q8NFH5) | 0.241 |
| NUP88 C561 (UniProt Q99567) | -0.117 |
| NTPCR C110 (UniProt Q9BSD7) | 0.0465 |
| NUP188 C161 (UniProt Q5SRE5) | 0.00136 |
| NR3C1 C287 (UniProt P04150) | -0.283 |
| NSUN2 C599 (UniProt Q08J23) | -0.078 |
| NSDHL C86 | -0.267 |
| NSUN5 C41 (UniProt Q96P11) | -0.55 |
| NPAT C1020 (UniProt Q14207) | 0.134 |
| NUP153 C593 (UniProt P49790) | 0.616 |
| NSD1 C810 (UniProt Q96L73) | 0.485 |
| NPEPPS C265 (UniProt P55786) | -0.00756 |

same assay, conditions: 200 µM; treatment time: 4 h; cell line lysate: HEK293T

| Target | log2 mean competition ratio |
| --- | --- |
| OGDH C331 (UniProt Q02218) | -0.356 |
| NUFIP1 C317 (UniProt Q9UHK0) | -0.0847 |
| NUMBL C78 (UniProt Q9Y6R0) | 0.0829 |
| OTUB2 C51 (UniProt Q96DC9) | 0.0509 |
| OSBPL2 C122 (UniProt Q9H1P3) | -0.0699 |
| NT5C3A C73 (UniProt Q9H0P0) | -0.278 |
| NUDT2 C143 (UniProt P50583) | -0.253 |
| NR3C1 C463 (UniProt P04150) | 0.584 |
| NUP35 C255 (UniProt Q8NFH5) | 0.107 |
| NUP88 C561 (UniProt Q99567) | 0.333 |
| NTPCR C110 (UniProt Q9BSD7) | 0.0965 |
| NUP188 C161 (UniProt Q5SRE5) | -0.14 |
| NR3C1 C287 (UniProt P04150) | 0.0448 |
| NSUN2 C599 (UniProt Q08J23) | -0.0514 |
| NSDHL C86 | -0.0998 |
| NSUN5 C41 (UniProt Q96P11) | -0.448 |
| NPAT C1020 (UniProt Q14207) | 0.219 |
| NUP153 C593 (UniProt P49790) | 0.212 |
| NSD1 C810 (UniProt Q96L73) | 0.438 |
| NPEPPS C265 (UniProt P55786) | -0.224 |

From the supplement of paper PMC11732987, “Enantioselective OTUD7B fragment discovery through chemoproteomics screening and high-throughput optimisation” (Communications Chemistry, 2025)
